Assay [1] has as its target clusterin (CLU), endogenous in TNBC cells (human (endogenous in MDA-MB-468 and MDA-MB-231)) (UniProt P10909). Description: co-IP; endogenous proteins in MDA-MB-468 and MDA-MB-231 lysates, with or without PKP3 knockdown; antibody-conjugated beads, 4 °C for 12 h; Western blot. In general terms: In western blotting, separated proteins are transferred to a membrane and probed.

The chains behind the UniProt entries cited, without tags or fusion partners. Residues count along the entry.
UniProt P10909, residues 23-449: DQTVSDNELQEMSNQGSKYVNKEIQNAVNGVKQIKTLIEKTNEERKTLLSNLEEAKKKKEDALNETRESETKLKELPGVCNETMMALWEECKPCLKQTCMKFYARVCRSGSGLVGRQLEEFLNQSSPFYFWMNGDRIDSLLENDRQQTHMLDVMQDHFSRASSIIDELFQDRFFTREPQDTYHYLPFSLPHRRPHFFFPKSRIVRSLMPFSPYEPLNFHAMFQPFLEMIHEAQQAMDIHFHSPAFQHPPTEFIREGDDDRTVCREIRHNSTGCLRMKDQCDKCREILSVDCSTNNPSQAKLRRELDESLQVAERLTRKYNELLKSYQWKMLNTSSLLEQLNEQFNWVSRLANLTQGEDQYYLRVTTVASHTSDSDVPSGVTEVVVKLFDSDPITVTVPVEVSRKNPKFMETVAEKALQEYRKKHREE
UniProt P98164, residues 26-4655: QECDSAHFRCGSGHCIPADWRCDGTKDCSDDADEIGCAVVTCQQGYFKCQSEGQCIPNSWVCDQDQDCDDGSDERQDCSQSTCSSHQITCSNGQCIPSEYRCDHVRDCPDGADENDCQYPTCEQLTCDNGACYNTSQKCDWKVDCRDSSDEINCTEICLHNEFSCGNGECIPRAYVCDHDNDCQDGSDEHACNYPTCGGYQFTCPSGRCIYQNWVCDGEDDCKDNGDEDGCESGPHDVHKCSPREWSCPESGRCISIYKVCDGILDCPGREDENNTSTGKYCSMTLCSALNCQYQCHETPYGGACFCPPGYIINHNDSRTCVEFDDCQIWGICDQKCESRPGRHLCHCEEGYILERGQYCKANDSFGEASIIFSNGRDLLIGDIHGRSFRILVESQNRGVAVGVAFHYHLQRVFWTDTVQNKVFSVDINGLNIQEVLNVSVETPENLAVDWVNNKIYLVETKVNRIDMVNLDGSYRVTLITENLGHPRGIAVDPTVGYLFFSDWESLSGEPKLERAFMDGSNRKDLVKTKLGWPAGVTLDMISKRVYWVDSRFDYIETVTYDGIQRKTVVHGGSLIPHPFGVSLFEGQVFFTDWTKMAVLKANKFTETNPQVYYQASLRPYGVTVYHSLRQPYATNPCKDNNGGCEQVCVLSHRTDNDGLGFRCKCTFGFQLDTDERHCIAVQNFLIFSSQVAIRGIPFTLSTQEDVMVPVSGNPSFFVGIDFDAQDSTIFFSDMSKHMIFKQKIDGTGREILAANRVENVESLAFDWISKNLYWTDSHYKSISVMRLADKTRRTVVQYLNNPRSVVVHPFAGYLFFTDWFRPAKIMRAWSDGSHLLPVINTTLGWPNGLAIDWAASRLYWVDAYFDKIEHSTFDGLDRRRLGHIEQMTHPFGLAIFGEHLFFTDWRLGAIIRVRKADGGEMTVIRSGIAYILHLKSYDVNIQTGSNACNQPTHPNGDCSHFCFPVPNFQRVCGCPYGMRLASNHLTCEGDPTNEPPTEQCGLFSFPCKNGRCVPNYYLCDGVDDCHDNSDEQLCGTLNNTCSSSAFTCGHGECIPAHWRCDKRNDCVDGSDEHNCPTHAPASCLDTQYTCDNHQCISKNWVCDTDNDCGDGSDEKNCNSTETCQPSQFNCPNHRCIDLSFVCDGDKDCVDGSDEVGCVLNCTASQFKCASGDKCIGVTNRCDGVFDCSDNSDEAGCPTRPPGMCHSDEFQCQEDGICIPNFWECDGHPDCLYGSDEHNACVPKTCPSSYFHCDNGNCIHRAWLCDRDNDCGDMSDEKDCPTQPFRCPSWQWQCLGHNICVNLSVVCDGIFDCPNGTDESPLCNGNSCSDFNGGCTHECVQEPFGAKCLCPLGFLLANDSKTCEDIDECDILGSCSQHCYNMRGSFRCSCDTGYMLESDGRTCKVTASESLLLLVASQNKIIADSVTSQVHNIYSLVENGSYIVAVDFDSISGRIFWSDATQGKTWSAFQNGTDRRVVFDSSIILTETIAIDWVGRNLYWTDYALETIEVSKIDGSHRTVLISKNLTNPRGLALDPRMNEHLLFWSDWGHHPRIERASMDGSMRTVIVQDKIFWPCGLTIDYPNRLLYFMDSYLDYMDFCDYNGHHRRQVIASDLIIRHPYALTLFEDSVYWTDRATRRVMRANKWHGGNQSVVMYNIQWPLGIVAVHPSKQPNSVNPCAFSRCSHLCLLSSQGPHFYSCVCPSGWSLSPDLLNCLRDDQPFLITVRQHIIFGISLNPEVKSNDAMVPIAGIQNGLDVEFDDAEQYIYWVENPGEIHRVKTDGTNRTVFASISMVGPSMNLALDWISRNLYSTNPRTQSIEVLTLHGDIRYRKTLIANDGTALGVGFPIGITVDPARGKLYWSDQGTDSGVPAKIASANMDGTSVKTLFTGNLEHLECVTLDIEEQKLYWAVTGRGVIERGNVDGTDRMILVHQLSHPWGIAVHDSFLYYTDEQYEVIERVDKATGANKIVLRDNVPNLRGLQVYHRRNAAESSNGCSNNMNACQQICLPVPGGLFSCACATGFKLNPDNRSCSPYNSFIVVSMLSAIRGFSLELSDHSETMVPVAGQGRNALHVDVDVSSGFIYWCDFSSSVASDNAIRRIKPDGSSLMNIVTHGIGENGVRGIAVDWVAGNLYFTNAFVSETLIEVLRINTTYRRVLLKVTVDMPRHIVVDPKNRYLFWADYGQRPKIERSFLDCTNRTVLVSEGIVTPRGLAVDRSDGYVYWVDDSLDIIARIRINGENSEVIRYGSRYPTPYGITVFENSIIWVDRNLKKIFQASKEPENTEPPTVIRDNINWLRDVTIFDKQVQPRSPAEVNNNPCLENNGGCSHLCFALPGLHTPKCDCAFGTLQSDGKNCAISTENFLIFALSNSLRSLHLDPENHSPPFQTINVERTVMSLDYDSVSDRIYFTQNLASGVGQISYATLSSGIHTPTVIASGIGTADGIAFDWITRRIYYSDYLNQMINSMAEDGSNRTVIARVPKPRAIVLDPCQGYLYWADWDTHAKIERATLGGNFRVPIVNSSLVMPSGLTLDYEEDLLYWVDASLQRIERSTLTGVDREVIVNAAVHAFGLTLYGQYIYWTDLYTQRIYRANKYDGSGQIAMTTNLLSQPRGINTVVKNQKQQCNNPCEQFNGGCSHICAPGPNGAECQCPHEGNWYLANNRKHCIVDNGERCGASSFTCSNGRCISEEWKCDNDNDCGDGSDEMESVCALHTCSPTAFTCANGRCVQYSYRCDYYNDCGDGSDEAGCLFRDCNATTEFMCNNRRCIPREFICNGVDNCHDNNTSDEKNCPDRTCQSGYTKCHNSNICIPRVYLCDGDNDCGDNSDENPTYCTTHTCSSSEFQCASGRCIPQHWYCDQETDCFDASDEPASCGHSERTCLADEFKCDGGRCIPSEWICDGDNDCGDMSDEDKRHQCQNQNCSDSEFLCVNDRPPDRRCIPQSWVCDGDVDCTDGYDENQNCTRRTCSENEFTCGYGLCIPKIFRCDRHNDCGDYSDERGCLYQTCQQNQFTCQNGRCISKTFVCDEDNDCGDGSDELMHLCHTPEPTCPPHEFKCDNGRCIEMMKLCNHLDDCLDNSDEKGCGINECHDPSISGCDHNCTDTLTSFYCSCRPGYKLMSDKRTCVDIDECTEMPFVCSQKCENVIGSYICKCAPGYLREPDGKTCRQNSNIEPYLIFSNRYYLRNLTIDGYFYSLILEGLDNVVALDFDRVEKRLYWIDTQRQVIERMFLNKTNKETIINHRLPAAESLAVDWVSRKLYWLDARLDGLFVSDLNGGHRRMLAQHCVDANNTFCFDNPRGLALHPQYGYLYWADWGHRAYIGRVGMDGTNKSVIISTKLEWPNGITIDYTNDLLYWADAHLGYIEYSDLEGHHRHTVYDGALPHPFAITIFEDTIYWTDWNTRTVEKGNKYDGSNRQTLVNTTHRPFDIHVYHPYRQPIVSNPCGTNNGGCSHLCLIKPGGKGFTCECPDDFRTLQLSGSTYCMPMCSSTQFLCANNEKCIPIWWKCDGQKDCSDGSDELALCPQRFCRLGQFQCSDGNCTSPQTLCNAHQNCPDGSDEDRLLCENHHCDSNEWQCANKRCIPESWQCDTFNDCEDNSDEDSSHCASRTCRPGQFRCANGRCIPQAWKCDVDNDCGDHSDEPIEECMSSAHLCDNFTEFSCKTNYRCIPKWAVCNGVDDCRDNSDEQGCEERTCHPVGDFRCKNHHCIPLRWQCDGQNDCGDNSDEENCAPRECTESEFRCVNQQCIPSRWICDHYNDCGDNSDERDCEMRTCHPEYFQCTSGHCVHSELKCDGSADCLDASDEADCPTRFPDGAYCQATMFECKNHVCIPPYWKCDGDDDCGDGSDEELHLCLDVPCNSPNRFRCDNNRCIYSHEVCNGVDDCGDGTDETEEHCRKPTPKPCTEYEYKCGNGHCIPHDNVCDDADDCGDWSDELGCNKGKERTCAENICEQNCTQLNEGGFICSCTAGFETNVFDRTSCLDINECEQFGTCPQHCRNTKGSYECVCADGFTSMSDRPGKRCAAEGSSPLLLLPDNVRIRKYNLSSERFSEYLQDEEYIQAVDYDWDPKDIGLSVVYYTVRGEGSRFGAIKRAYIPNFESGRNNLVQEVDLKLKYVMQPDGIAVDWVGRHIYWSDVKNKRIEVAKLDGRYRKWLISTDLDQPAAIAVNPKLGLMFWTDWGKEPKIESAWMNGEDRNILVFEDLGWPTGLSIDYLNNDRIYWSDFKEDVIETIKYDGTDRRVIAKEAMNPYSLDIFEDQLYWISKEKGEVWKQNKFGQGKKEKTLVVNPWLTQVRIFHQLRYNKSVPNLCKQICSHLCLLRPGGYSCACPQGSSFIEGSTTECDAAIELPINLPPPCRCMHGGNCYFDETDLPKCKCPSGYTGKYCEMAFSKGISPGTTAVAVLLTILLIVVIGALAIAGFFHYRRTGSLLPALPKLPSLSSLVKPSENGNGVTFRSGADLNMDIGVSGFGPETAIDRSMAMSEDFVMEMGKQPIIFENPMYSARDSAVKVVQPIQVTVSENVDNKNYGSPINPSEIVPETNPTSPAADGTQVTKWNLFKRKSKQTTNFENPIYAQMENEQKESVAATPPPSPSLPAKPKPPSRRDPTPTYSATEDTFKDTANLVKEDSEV

A further assay concerns the target HA-tagged CLU (UniProt P10909). Description: co-IP; HEK293T (293T) cells overexpressing HA-CLU or its truncates and FLAG-PKP3 or its truncates; anti-FLAG and anti-HA antibodies; Western blot.

No constants are given. Whether binding was seen depends on the method and setting. Binding seen in cells or lysates may run through a third protein. Some results given as binding are weak or reduced against the parent protein; the word gives no strength. For part of these data: Tags and fused reporters may be left off the sequences shown.

Regarding “LRP2 (from UniProt P98164 26-4655) (receptor)”, in assay [1], the binding entry is recorded as “binds”.

B1: plakophilin 3 (PKP3), endogenous in TNBC cells (protein, UniProt Q9Y446 1-797)
chain: MQDGNFLLSALQPEAGVCSLALPSDLQLDRRGAEGPEAERLRAARVQEQVRARLLQLGQQPRHNGAAEPEPEAETARGTSRGQYHTLQAGFSSRSQGLSGDKTSGFRPIAKPAYSPASWSSRSAVDLSCSRRLSSAHNGGSAFGAAGYGGAQPTPPMPTRPVSFHERGGVGSRADYDTLSLRSLRLGPGGLDDRYSLVSEQLEPAATSTYRAFAYERQASSSSSRAGGLDWPEATEVSPSRTIRAPAVRTLQRFQSSHRSRGVGGAVPGAVLEPVARAPSVRSLSLSLADSGHLPDVHGFNSYGSHRTLQRLSSGFDDIDLPSAVKYLMASDPNLQVLGAAYIQHKCYSDAAAKKQARSLQAVPRLVKLFNHANQEVQRHATGAMRNLIYDNADNKLALVEENGIFELLRTLREQDDELRKNVTGILWNLSSSDHLKDRLARDTLEQLTDLVLSPLSGAGGPPLIQQNASEAEIFYNATGFLRNLSSASQATRQKMRECHGLVDALVTSINHALDAGKCEDKSVENAVCVLRNLSYRLYDEMPPSALQRLEGRGRRDLAGAPPGEVVGCFTPQSRRLRELPLAADALTFAEVSKDPKGLEWLWSPQIVGLYNRLLQRCELNRHTTEAAAGALQNITAGDRRWAGVLSRLALEQERILNPLLDRVRTADHHQLRSLTGLIRNLSRNARNKDEMSTKVVSHLIEKLPGSVGEKSPPAEVLVNIIAVLNNLVVASPIAARDLLYFDGLRKLIFIKKKRDSPDSEKSSRAASSLLANLWQYNKLHRDFRAKGYRKEDFLGP
As to B1, the binding result in assay [1] is listed as “binds”.

B2: FLAG-tagged PKP3 (protein, UniProt Q9Y446 1-797)
chain: MQDGNFLLSALQPEAGVCSLALPSDLQLDRRGAEGPEAERLRAARVQEQVRARLLQLGQQPRHNGAAEPEPEAETARGTSRGQYHTLQAGFSSRSQGLSGDKTSGFRPIAKPAYSPASWSSRSAVDLSCSRRLSSAHNGGSAFGAAGYGGAQPTPPMPTRPVSFHERGGVGSRADYDTLSLRSLRLGPGGLDDRYSLVSEQLEPAATSTYRAFAYERQASSSSSRAGGLDWPEATEVSPSRTIRAPAVRTLQRFQSSHRSRGVGGAVPGAVLEPVARAPSVRSLSLSLADSGHLPDVHGFNSYGSHRTLQRLSSGFDDIDLPSAVKYLMASDPNLQVLGAAYIQHKCYSDAAAKKQARSLQAVPRLVKLFNHANQEVQRHATGAMRNLIYDNADNKLALVEENGIFELLRTLREQDDELRKNVTGILWNLSSSDHLKDRLARDTLEQLTDLVLSPLSGAGGPPLIQQNASEAEIFYNATGFLRNLSSASQATRQKMRECHGLVDALVTSINHALDAGKCEDKSVENAVCVLRNLSYRLYDEMPPSALQRLEGRGRRDLAGAPPGEVVGCFTPQSRRLRELPLAADALTFAEVSKDPKGLEWLWSPQIVGLYNRLLQRCELNRHTTEAAAGALQNITAGDRRWAGVLSRLALEQERILNPLLDRVRTADHHQLRSLTGLIRNLSRNARNKDEMSTKVVSHLIEKLPGSVGEKSPPAEVLVNIIAVLNNLVVASPIAARDLLYFDGLRKLIFIKKKRDSPDSEKSSRAASSLLANLWQYNKLHRDFRAKGYRKEDFLGP
As for B2, in the assay with HA-tagged CLU, the binding entry was “binds”.
